Measured values taken from patent publication US20160298128A1.
No constants are given. Whether binding was seen depends on the method and setting. Some results given as binding are weak or reduced against the parent protein; the word gives no strength. Sequences can lack the tags named with a protein.

Protein sequences, listed by entry. Tags and fused reporters are not part of them.
UniProt P23321: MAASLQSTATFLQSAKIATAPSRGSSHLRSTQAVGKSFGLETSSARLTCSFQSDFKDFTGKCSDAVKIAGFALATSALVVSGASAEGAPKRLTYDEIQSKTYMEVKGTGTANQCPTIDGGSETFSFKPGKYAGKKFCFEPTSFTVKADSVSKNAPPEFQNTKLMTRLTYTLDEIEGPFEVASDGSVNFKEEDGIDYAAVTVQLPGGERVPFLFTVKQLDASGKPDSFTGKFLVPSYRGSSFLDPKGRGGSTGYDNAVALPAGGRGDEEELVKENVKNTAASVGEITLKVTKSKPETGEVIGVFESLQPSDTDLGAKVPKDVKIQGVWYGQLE

Target: SCFPC-PsbO1 (C-terminus fragment of super cyan fluorescent protein fused to the N-terminus of PsbO1) (Arabidopsis thaliana) (UniProt P23321)
Assay: BiFC, transient expression in cotyledons

binding: binds
B1: VenusN-AtCV (N-terminus fragment of yellow fluorescent protein Venus fused to the N-terminus of AtCV) (protein, not shown: small tags and cut ends)
chain: MAGRISCCLNLPPLDSNSAQSLASLLKTTSKISCRRTENETEPRKNKCSFVLGVAATVVIGGIQINDVASVEAAVVKSPVEEMAAGVVPPRRWSDKRTCPPWLENSLETIVPENLPRPSAHRRLELAGLAKGDAPPVGVVMTRVNRGGCFSV
